log2 fold change data for 34 targets are collected here from the supplement of paper PMC10849652.

Amino acid sequences for entries named in this document (tags omitted). A change or cut given only in a name is not applied to a line headed by its entry.
UniProt Q9NR77: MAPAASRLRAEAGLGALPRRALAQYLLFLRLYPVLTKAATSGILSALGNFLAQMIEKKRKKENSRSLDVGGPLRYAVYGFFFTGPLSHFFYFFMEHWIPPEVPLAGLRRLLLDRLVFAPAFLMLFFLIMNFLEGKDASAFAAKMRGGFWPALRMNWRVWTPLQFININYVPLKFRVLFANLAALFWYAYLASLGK
UniProt Q9BXR0: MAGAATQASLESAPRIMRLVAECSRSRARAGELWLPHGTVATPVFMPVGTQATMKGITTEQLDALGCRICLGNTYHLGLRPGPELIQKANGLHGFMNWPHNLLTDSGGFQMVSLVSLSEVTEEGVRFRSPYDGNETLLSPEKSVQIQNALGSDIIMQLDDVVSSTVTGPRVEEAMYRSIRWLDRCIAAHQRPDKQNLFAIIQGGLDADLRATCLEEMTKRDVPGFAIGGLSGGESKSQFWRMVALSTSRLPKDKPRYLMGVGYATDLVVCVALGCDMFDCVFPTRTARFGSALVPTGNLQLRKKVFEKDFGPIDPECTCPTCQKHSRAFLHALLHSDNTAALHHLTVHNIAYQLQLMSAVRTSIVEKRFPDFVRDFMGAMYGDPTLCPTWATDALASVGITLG
UniProt P20962: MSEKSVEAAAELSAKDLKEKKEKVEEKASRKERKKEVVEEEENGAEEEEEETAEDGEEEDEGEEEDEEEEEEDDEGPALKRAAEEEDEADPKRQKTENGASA
UniProt Q15269: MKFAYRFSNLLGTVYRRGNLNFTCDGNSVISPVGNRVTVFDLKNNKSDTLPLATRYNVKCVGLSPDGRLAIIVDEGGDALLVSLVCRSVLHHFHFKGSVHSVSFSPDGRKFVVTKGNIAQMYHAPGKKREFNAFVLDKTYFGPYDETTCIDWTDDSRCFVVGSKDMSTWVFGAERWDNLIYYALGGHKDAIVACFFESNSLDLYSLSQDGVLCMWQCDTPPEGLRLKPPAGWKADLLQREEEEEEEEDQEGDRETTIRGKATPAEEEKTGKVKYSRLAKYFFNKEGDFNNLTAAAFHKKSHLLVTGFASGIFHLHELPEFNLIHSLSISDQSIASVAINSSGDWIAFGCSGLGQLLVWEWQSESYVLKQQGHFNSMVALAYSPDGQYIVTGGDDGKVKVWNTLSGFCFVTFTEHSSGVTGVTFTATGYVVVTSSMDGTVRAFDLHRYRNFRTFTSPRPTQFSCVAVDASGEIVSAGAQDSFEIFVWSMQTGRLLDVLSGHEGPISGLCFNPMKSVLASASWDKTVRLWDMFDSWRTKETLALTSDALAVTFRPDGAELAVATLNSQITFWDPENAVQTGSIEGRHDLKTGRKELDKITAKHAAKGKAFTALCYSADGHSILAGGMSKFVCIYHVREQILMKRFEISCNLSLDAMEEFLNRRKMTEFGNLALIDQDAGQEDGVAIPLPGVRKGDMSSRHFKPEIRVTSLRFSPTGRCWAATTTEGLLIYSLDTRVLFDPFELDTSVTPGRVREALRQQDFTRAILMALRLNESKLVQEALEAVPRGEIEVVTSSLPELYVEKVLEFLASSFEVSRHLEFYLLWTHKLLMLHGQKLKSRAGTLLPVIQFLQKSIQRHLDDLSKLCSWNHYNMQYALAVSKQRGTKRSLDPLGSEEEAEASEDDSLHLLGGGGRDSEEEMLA
UniProt Q8TAA3: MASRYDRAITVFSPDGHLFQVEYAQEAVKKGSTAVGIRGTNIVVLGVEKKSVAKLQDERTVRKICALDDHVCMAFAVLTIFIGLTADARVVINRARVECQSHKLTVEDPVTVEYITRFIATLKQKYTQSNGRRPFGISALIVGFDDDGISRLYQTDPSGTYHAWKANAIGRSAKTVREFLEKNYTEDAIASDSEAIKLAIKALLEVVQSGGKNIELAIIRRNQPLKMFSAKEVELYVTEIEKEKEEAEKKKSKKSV
UniProt P09417: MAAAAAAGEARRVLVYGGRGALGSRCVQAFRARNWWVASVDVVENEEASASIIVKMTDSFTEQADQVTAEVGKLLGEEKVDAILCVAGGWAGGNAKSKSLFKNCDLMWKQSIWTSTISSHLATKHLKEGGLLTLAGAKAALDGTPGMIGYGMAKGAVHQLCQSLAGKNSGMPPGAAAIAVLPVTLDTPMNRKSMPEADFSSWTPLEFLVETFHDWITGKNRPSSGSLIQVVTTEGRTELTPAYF
UniProt Q9UL46, whole entry, looked up: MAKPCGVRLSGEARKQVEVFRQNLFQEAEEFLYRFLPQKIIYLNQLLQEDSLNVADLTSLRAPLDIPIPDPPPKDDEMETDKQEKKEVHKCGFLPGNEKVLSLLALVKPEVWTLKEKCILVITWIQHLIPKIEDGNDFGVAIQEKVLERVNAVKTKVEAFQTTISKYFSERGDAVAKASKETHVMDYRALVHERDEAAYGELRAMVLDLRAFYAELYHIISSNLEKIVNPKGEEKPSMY
UniProt Q9NRG1: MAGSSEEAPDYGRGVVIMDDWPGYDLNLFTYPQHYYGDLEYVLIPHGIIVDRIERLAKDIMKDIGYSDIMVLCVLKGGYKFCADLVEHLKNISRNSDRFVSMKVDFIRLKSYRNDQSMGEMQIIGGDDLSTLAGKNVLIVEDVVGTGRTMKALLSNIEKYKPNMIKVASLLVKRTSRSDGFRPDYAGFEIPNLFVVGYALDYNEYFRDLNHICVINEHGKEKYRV
UniProt O00487, whole entry, looked up: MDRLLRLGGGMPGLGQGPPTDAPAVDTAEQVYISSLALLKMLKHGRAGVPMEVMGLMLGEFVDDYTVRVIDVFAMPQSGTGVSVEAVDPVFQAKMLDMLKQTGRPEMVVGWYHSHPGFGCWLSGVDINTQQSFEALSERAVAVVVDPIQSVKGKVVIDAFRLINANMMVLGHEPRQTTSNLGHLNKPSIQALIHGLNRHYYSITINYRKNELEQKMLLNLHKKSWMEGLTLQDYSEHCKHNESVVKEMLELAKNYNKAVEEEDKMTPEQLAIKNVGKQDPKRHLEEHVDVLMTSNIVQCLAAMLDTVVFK
UniProt P08575: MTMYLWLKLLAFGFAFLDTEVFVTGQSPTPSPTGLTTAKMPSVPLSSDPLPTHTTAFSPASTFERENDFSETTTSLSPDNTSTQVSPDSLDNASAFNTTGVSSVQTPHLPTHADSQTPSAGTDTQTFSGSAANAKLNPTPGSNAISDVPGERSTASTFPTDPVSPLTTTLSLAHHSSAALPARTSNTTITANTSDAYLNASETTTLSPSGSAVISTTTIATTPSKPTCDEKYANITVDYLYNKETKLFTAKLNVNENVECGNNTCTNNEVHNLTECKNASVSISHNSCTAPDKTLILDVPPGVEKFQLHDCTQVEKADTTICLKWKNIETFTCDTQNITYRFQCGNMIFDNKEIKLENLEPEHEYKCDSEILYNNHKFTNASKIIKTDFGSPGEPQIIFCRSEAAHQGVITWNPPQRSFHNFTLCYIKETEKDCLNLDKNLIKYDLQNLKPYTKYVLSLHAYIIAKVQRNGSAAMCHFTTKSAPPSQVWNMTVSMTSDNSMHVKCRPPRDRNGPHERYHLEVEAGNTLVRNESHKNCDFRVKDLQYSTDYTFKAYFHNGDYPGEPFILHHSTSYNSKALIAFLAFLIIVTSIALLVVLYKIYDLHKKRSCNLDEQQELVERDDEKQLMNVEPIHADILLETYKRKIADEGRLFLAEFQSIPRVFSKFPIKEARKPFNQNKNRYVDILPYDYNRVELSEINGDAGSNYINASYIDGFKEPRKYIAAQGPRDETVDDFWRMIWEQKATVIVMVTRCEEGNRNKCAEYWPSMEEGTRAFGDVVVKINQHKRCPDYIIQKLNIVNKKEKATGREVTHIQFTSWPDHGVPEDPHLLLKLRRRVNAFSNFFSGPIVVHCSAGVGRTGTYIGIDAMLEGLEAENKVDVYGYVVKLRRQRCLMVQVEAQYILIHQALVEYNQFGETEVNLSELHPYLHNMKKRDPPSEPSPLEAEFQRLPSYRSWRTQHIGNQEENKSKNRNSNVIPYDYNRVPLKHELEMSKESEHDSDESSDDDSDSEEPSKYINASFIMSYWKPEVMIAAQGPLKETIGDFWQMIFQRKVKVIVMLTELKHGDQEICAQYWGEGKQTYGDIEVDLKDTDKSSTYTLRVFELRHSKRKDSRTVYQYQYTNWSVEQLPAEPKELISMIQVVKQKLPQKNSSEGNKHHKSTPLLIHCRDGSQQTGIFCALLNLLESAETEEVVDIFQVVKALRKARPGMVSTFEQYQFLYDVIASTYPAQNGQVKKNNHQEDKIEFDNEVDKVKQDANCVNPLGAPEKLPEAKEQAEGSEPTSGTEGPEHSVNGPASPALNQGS
UniProt Q5JS54: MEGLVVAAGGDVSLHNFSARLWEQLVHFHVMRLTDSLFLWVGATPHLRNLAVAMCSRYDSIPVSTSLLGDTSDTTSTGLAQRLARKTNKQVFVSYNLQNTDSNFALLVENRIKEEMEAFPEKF
UniProt Q13308: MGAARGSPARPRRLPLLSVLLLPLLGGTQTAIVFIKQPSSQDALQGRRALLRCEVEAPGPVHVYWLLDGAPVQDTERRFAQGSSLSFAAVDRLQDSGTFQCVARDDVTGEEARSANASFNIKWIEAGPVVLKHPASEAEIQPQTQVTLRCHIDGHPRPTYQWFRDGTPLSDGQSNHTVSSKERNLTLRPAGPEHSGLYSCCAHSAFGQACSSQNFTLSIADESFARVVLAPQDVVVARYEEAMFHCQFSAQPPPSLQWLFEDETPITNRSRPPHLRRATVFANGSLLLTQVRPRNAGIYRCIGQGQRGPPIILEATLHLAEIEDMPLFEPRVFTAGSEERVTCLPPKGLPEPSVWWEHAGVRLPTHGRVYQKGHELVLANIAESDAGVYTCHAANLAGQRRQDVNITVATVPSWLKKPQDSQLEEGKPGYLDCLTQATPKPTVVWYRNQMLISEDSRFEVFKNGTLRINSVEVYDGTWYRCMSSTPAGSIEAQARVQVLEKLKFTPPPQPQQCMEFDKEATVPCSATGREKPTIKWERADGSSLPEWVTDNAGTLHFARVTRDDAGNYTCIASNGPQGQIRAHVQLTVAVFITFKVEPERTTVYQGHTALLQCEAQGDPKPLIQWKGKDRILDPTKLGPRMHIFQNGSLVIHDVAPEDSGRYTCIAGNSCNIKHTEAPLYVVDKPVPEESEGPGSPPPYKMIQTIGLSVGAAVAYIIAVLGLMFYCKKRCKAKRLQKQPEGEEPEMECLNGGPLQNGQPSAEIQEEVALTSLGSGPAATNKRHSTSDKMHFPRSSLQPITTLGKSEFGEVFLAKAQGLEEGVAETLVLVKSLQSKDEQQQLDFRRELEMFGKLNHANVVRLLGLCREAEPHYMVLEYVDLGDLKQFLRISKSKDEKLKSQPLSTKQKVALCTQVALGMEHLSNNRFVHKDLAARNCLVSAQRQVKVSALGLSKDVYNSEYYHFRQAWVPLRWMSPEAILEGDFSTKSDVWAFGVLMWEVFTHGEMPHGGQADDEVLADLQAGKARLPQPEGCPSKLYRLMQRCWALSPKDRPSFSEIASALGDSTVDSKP
UniProt P49023, whole entry, looked up: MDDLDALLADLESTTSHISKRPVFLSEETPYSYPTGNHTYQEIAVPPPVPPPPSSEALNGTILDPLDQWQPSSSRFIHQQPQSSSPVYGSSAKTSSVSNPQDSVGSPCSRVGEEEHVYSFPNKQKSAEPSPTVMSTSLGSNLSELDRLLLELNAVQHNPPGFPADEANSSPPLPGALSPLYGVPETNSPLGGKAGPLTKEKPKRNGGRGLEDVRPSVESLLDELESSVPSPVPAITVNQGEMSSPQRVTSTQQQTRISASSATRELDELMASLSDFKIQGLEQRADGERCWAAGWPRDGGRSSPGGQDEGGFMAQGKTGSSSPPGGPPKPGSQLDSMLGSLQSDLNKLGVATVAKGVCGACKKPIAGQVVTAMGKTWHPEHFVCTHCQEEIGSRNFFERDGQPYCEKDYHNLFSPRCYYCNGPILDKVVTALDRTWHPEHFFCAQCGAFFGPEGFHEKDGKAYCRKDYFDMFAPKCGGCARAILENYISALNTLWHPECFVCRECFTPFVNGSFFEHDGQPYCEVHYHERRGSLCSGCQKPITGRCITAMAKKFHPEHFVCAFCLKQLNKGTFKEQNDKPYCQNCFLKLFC
UniProt P07602: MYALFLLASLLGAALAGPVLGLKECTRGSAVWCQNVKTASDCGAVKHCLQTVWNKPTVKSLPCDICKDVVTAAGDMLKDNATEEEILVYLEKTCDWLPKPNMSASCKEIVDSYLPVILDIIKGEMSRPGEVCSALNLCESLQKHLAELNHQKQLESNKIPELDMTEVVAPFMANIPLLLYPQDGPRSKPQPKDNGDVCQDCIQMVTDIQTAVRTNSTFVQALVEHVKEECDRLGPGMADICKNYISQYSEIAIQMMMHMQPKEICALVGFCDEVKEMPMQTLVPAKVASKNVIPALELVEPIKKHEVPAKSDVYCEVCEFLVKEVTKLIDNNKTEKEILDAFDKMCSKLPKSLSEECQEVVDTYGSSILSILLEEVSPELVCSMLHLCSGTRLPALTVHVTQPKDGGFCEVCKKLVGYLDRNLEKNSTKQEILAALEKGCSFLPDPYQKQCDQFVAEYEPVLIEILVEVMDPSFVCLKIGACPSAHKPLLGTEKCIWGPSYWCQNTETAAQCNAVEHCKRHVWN

The other results are listed elsewhere or left out.

Compound in the assay: CC(C)N(C[C@H]1O[C@@H](n2cnc3c(N)ncnc32)[C@H](O)[C@@H]1O)[C@H]1C[C@@H](CCc2nc3cc(C(C)(C)C)ccc3[nH]2)C1 [pinometostat]
Nature of the assay: log2 fold change, soluble protein after heating vs DMSO (PISA); higher = thermal stabilisation; K562 cells, 10 uM, 30 min; active = over 0.2 and 3.5 SD of the protein, either way, in both replicates (recomputed). In outline: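 K562 cells at 2×10^6 cells/mL were given 10 μM compound for 30 min. Aliquots then went through 3 min of heating across 48°C-58°C, were pooled, and were extracted in PBS with 0.5% NP-40 at 4°C, and the supernatant after 21,000xg for 90 min was quantified by TMTpro 16plex LC-MS/MS with channel sums equalised. Thermal stability relative to control samples, from duplicates, is given as log2 fold change.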
PXMP2 (UniProt Q9NR77): the log2 fold change is inactive: -0.041.
Consider PSPH (UniProt P78330), for which the log2 fold change was inactive: -0.058.
The figure for QTRT1 (UniProt Q9BXR0) is inactive: -0.01.
Then PUS7 isoform 2 (UniProt Q96PZ0), with inactive: 0.051; and PZP (UniProt P20742), with inactive: -0.024.
Consider QPCTL (UniProt Q9NXS2), for which the log2 fold change is inactive: 0.023.
Then PTMS (UniProt P20962), with inactive: -0.068.
The figure for PWP2 (UniProt Q15269) is inactive: 0.181; for PSMA8 (UniProt Q8TAA3) it is inactive: 0.017.
Then QDPR (UniProt P09417), with inactive: -0.01.
As for PSME1 (UniProt Q06323), the log2 fold change is inactive: -0.037.
Regarding PSME2 (UniProt Q9UL46), the log2 fold change is inactive: -0.027.
The figure for PRTFDC1 (UniProt Q9NRG1) is inactive: -0.08.
The figure for PSMB1 (UniProt P20618) is inactive: 0.006; for PTPRA (UniProt P18433) it is inactive: -0.071.
Then PSMD4 (UniProt P55036), with inactive: 0.02.
For PUS7L (UniProt Q9H0K6), the log2 fold change is inactive: -0.02.
The figure for PSMD14 (UniProt O00487) is inactive: 0.055.
PUM2 (UniProt Q8TB72): the log2 fold change is inactive: 0.004.
The figure for PTPRC (UniProt P08575) is inactive: -0.021; for QTRT2 isoform 4 (UniProt Q9H974) it is inactive: -0.002.
PUS10 (UniProt Q3MIT2): the log2 fold change is inactive: 0.017.
The figure for PSMG4 isoform 2 (UniProt Q5JS54) is inactive: 0.033; for PYCARD (UniProt Q9ULZ3) it is inactive: -0.123.
Take PSMA7 (UniProt O14818): the log2 fold change was inactive: 0.001.
The figure for PTDSS2 (UniProt Q9BVG9) is inactive: -0.007.
Then QSOX2 (UniProt Q6ZRP7), with inactive: 0.006.
On to PTK7 isoform 6 (UniProt Q13308), for which the log2 fold change is inactive: 0.005.
The figure for PYM1 (UniProt Q9BRP8) is inactive: 0.067; for PSMA1 isoform 2 (UniProt P25786) it is inactive: 0.003; for PSMA5 (UniProt P28066) it is inactive: -0.031.
As to PTCD3 (UniProt Q96EY7), the log2 fold change was inactive: 0.018.
Then PXN (UniProt P49023), with inactive: -0.069.
The figure for PSAP isoform 3 (UniProt P07602) is inactive: -0.103.
